According to US10959966B2, “Compositions and methods for modulating HEXM1 expression” (CASE WESTERN RESERVE UNIVERSITY, priority 2014, dated 2021):
Some entries share one result that the patent states for a list of compounds.

test system: HEXIM1 expression in LNCaP prostate cancer cells; experiment: HEXIM1 expression by western blot in LNCaP cells treated with HMBA analogs; format: cell-based; settings: analogs at 500 μM, 24 h, western blot normalized to β-actin
Experimental: (§1) FIGS. 2(A-B) illustrate Western blots and a graph showing the effect of HMBA analogs on HEXIM1 expression. LNCaP cells were treated with vehicle, HMBA (5 mM) and its analogs at 500 μM for 24 h. Level of HEXIM1 (upper panel) and β-actin (lower panel) was analyzed by Western blot of cell extracts with HEXIM1 antibody and β-actin antibody respectively. The bands of HEXIM1 were quantified using ImageJ (NIH) and normalized to β-actin. The results are the representative of three independent experiments.
as §1, with “3(A-B)” for “2(A-B)”, “lower concentration” for “the effect”, “identified” for “its”, “100” for “500”
FIGS. 4(A-B) illustrate Western blots and a graph showing dose-dependent study of compound 4a1 and HMBA on HEXIM1 expression. Level of HEXIM1 (upper panel) and β-actin (lower panel) was analyzed by Western blot of cell extracts with HEXIM1 antibody and β-actin antibody respectively.
HMBA analogs described herein can be synthesized based on the HMBA scaffold and then selected for their ability to induce HEXIM1 expression in an in vitro cell assay. For example, the synthesized HMBA analogs can be administered to cells, such as LNCaP prostate cancer cells, and the level of HEXIM1 in such cells can be measured using western blot analyses. The level of HEXIM1 expression of cells that are treated with a potential HMBA analog can be compared to control cells treated without the HMBA analog or with HMBA. Control cells (untreated or treated with HMBA) can be assigned a relative HEXIM1 expression value. Induction or promotion of HEXIM1 expression is achieved when the HEXIM1 expression relative to the control is increased at least about 1%, 5%, 10%, 15%, 20%, 30%, 50%, 75%, 100%, 200%, or more.
The synthesis of the symmetrical and unsymmetrical derivatives is described in Scheme 1 and 2, respectively. For the symmetrical analogs, moieties A and C were kept identical. Besides the acetyl group of HMBA, methanesulfonyl group, propionyl group or butyryl group were introduced. In addition, a bulky benzoyl group was introduced. The active proton in the amide moiety was replaced with methyl group to generate a series of analogs with lower solubility. For the moiety B, various linkers such as 1,3-propylene, […] 1,4-cyclohexylene, 1,4-phenylene-bis(methylene), 1,4-cyclohexylene-bis(methylene) were tested for optimization. For the unsymmetrical analogs, the A and B moieties were kept the same as HMBA while the C moiety was modified with aryl or alkyl amide. A total of 32 compounds were synthesized, and these compounds were examined for their potency to induce HEXIM1 in LNCaP prostate cancer cells. HMBA (5 mM) was used as a positive control.
Therefore, these three compounds were screened at lower concentrations.

Row | Structure (SMILES) | HEXIM1 expression compared to the vehicle treatment (cutoff 2.5 fold)
1 | CCC(=O)NCCCCCCNC(=O)CC [Compound 2a4] | above 2.5 fold
2 | CCCC(=O)NCCCCCCNC(=O)CCC [Compound 2a5] | above 2.5 fold
3 | CC(=O)NC1CCC(NC(C)=O)CC1 (centres unmarked) [Compound 2d1] | above 2.5 fold
4 | CS(=O)(=O)NCCCNS(C)(=O)=O [Compound 2f2] | above 2.5 fold
5 | CC(=O)N(C)Cc1ccc(CN(C)C(C)=O)cc1 [Compound 3b1] | above 2.5 fold
6 | CN(Cc1ccc(CN(C)S(C)(=O)=O)cc1)S(C)(=O)=O [Compound 3b2] | above 2.5 fold
7 | CN(CC1CCC(CN(C)S(C)(=O)=O)CC1)S(C)(=O)=O (centres unmarked) [Compound 3c2] | above 2.5 fold
8 | CC(=O)N(C)C1CCC(N(C)C(C)=O)CC1 (centres unmarked) [Compound 3d1] | above 2.5 fold
